This assay concerns the target leucyl-tRNA synthetase 1 precursor with a hexa-histidine tag (pLeuRS1-(His)6) (Arabidopsis thaliana). The assay is described as follows: pull-down; His6-tagged precursor added to isolated Arabidopsis mitochondria, import at 8 °C to arrest translocation intermediates; mitochondria ruptured, OM–IM fraction from 20–38% sucrose gradient solubilised with maltoside; Ni-NTA agarose; co-purifying bands by SDS-PAGE, Coomassie or silver staining and protein sequencing; only the target purified.

Results are given in words; binding and its absence hold for the method and conditions named. In cells and extracts the contact can be indirect. Binding can be weak; no strength is given.

B1: TIM17-2 (protein, UniProt Q9SP35 1-243)
chain: MGTPETSREPCPDRILDDIGGAFGMGAVGGSAFHFIKGTYNSPKGSRFVGGTQSVSMNAPRTGGSFAVWGGLFSTFDCTMVYLRQKEDPWNSIIAGAATGGFLSMRQGAGAASRSAIFGGVLLALIEGAGIMLNKVLAQPQNMMMEDPGMQGMPGMQGMQGMPGMPGMQGMPGMQGMQMGQMQSQAQIRSESQNQNTASSSSSSSWFGGLFDKKKEEVQPGSESKTEVLESFDAPPVPSFEFK
As for B1, the binding result is reported as “binds”.

For the origin of these results see paper PMC8067559.
